In article PMC11601937:
These are yes or no findings as the source states them, for the method shown. Binding seen in cells or lysates may run through a third protein. Some binding calls cover weakened binding; strength is not graded here.

Target: T1, stimulator of IFN genes (STING) (mouse (endogenous in BMDCs)) (UniProt Q3TBT3)
T1 sequence: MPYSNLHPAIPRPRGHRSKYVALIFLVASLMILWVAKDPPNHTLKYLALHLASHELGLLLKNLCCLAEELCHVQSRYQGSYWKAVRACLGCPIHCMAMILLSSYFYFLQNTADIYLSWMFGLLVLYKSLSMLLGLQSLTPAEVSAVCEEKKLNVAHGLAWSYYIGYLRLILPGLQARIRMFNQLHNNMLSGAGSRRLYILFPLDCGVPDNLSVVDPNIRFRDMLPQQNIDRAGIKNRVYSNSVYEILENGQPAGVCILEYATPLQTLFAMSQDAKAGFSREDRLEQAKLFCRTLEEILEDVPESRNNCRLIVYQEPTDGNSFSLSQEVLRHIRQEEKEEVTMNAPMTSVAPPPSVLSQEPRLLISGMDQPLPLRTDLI
Assay: co-IP; anti-STING antibody on Dynabeads Protein G; lysates of WT mouse BMDCs stimulated with 2'3'-cGAMP, incubated 2 hours at room temperature; eluate detected by Western blotting

binding: binds
B1: cathepsin A (enzyme, UniProt P16675 24-474)
chain: APDQDEIDCLPGLAKQPSFRQYSGYLRASDSKHFHYWFVESQNDPKNSPVVLWLNGGPGCSSLDGLLTEHGPFLIQPDGVTLEYNPYAWNLIANVLYIESPAGVGFSYSDDKMYVTNDTEVAENNYEALKDFFRLFPEYKDNKLFLTGESYAGIYIPTLAVLVMQDPSMNLQGLAVGNGLASYEQNDNSLVYFAYYHGLLGNRLWTSLQTHCCAQNKCNFYDNKDPECVNNLLEVSRIVGKSGLNIYNLYAPCAGGVPGRHRYEDTLVVQDFGNIFTRLPLKRRFPEALMRSGDKVRLDPPCTNTTAPSNYLNNPYVRKALHIPESLPRWDMCNFLVNLQYRRLYQSMNSQYLKLLSSQKYQILLYNGDVDMACNFMGDEWFVDSLNQKMEVQRRPWLVDYGESGEQVAGFVKECSHITFLTIKGAGHMVPTDKPRAAFTMFSRFLNKEPY
